# Experimental data from PubChem BioAssay AID1487 (National Center for Advancing Translational Sciences (NCATS), 2009).
# About 25 (0.01%) of roughly 200,000 compounds were called active. The inconclusive results got no clear call from the source; some entries with a clear call stand among them for comparison. Calls follow the shape of the dose curve; as a rule, active = well fitted inhibition curve with a large enough effect in the signal ratio, with a control signal flat (not every such curve was filed as active); inconclusive = small, poorly fitted or top-dose-only effect, or effect the other way, or a change in a side signal; inactive = flat fitted curve, though single readings scatter; the % refers to the signal ratio. Where the call is inconclusive, the potency comes from a doubtful curve fit.
# Test: qHTS Assay for Modulators of Lamin A Splicing
# Settings: HeLa LMNA splicing GFP/RFP minigene ratio, 48 h; ratio change, negative = inhibition: at 46.1 µM (top of the series) unless noted
# How it was run: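 S3 HeLa stable clones carrying a lamin A-EGFP splicing minigene plus DsRed2 were seeded at 600 cells/well in Opti-MEM with 2% FBS, pin-dosed and incubated 48 h at 37°C. Acumen cytometry (488 nm) gave the GFP/RFP total-intensity ratio.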
# % is scaled to controls: 0 for no effect and ±100 for the full control effect; potency is read from the fitted curve at half-maximal effect.
Structure (SMILES),"ratio change, negative = inhibition",Potency
COCC(=O)Nc1ccc(N(C)C)cc1,inactive: 9.81%,–
COc1cccc(NC(=S)NCc2cccs2)c1,inactive: 1.08%,–
Cc1ccc(C(=O)O)cc1NC(=S)NC(=O)c1ccc([N+](=O)[O-])cc1Cl,inactive: 7.53%,–
COc1ccc(/C=C(/C#N)C(=O)Nc2cc(C)ccc2C)cc1C(=O)O,inconclusive: 4.12%,–
O=C(c1ccc2snnc2c1)N1CCCCC1,inactive: 0.786%,–
CC(=O)Nc1ccc(Cc2ccc3[nH]c(=O)cc(C)c3c2)cc1,–,"inconclusive: 14.1 µM [inhibitor, partial curve, poor fit]"
CCCN1C(=O)/C(=C\C=C2/Sc3ccccc3N2CCO)SC1=S,inactive: 4.08% [at 46 µM],–
COc1ccc2sc(N(Cc3cccnc3)C(=O)CCc3ccccc3)nc2c1,inconclusive: -4.76% [at 46 µM],–
CCOC(=O)c1ccc(NC(=O)Cn2nc(C)c3nn(-c4ccc(Cl)cc4)c(C)c3c2=O)cc1,inactive: -17.3% [at 46 µM],–
CC(c1cc2ccccc2s1)N(O)C(N)=O (stereo unspecified),–,"inconclusive: 0.224 µM [inhibitor, full curve]"
C=C1CCC2C(CC2(C)C)C(=C)CC/C1=N/O (stereo unspecified),inconclusive: -6.73%,–
CNc1nc(-c2ccoc2)nc2ccccc12,inconclusive: -18.4%,–
Cn1nnnc1Sc1ccc([N+](=O)[O-])cc1Cl,–,"inconclusive: 11.2 µM [falling, partial curve]"
CSc1ccc(/C=N/N2CCN(Cc3ccc(C)cc3C)CC2)cc1,inactive: -20.8% [at 46 µM],–
CC(C)Oc1ccc(CNC(=O)c2ccc3nc(C(C)C)oc3c2)cc1,inactive: 13.5% [at 46 µM],–
N/C(=N\OC(=O)COc1ccc(Br)cc1)c1ccncc1,inconclusive: 13.7%,–
COc1ccc(OC)c(C2=NOC(C(=O)N3CCCc4ccccc43)C2)c1 (stereo unspecified),inactive: -0.447%,–
CS(=O)(=O)C1=NSC2=NC(=O)/C(=C\c3cccn3-c3ccccc3Cl)C(=N)N21,inconclusive: 18.6% [at 9.22 µM],–
COC(=O)c1ccc(OC)c(CSc2nnc(COc3ccc(Cl)cc3)o2)c1,–,"inconclusive: 22.4 µM [fluorescent, single point]"
Cc1occc1-c1nnc(SCC(=O)Nc2ccccc2)n1C(C)c1ccccc1 (stereo unspecified),inconclusive: 15.6%,–
CCc1c(C)nc2ncnn2c1N1CCCC(C(=O)NCc2ccc3c(c2)OCO3)C1 (stereo unspecified),–,"inconclusive: 35.5 µM [fluorescent, single point]"
Cc1nc([N+](=O)[O-])c(Br)n1CC(=O)c1ccccc1,inconclusive: -35.6%,–
CNc1nc(Nc2ccc(C)c(Cl)c2)nc(N)c1[N+](=O)[O-],inconclusive: 68.1%,–
Cc1cccc(N2CCN(C(=O)c3cnc4c(C)cccn4c3=O)CC2C)c1 (stereo unspecified),inconclusive: -1.14% [at 46 µM],–
CC(=O)CCc1oc2ccc([N+](=O)[O-])cc2c1-c1ccc(C)o1,inconclusive: 22.5% [at 46 µM],–
CCCCOC(=O)CSC1=C(C#N)C(c2ccccc2OCC)C(C#N)C(=O)N1 (stereo unspecified),inconclusive: -7.97% [at 0.0737 µM],–

# Reprinted at random: 2 records from the list.
Structure (SMILES),"ratio change, negative = inhibition",Potency
O=C(c1ccc2snnc2c1)N1CCCCC1,inactive: 0.786%,–
Cn1nnnc1Sc1ccc([N+](=O)[O-])cc1Cl,–,"inconclusive: 11.2 µM [falling, partial curve]"
